# Measurements taken from paper PMC7737755.
# Construct, isoform or probe ends are uncertain for at least one entry. Where cells or extracts were used, other partners may take part. For some assays here: No signal at the amounts used counts as a negative.
# Experiments:
# C/EBPβ [1] = experiment: EMSA; settings: 2 ug nuclear extract; LightShift Chemiluminescent EMSA kit (Pierce 20148), manufacturer's protocol, 2 ug nuclear extract per reaction; protein in a lysate after overexpression; label: biotin end label
# C/EBPβ [2] = experiment: EMSA, supershift; settings: 2 ug nuclear extract, supershifted by C/EBPβ antibody; LightShift Chemiluminescent EMSA kit (Pierce 20148), manufacturer's protocol, 2 ug nuclear extract per reaction; protein in a lysate after overexpression; label: biotin end label
Sequence,binding result (C/EBPβ [1]),binding result (C/EBPβ [2])
TCAATTCAAGGAAGGCAG (double strand) [Mut C/EBP probe],no binding,
TCAATTCTTACTCCACAG (double strand) [WT C/EBP probe (DLEU2 / pri-mir15a/mir16-1 promoter)],,binds
